According to publication PMC8333361:
These are yes or no findings as the source states them, for the method shown. In cells and extracts the contact can be indirect. Some binding calls cover weakened binding; strength is not graded here. Tags and fused reporters may be left off the sequences shown.

The chains behind the UniProt entries cited, without tags or fusion partners.
UniProt P01106: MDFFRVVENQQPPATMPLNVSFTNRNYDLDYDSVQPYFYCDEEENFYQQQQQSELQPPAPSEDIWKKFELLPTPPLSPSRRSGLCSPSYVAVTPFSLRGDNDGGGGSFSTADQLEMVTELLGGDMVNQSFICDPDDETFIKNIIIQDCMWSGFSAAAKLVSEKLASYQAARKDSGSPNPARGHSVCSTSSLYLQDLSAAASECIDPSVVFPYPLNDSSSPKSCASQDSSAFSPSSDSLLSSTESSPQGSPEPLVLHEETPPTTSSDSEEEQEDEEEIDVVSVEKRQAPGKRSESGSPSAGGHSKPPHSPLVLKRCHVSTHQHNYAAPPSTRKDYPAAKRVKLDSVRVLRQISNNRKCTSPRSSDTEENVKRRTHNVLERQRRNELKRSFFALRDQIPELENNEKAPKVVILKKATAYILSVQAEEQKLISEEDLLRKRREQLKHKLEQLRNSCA

Biological target: T1, GFP-ANLN-201 (human) (UniProt Q9NQW6)
T1 sequence: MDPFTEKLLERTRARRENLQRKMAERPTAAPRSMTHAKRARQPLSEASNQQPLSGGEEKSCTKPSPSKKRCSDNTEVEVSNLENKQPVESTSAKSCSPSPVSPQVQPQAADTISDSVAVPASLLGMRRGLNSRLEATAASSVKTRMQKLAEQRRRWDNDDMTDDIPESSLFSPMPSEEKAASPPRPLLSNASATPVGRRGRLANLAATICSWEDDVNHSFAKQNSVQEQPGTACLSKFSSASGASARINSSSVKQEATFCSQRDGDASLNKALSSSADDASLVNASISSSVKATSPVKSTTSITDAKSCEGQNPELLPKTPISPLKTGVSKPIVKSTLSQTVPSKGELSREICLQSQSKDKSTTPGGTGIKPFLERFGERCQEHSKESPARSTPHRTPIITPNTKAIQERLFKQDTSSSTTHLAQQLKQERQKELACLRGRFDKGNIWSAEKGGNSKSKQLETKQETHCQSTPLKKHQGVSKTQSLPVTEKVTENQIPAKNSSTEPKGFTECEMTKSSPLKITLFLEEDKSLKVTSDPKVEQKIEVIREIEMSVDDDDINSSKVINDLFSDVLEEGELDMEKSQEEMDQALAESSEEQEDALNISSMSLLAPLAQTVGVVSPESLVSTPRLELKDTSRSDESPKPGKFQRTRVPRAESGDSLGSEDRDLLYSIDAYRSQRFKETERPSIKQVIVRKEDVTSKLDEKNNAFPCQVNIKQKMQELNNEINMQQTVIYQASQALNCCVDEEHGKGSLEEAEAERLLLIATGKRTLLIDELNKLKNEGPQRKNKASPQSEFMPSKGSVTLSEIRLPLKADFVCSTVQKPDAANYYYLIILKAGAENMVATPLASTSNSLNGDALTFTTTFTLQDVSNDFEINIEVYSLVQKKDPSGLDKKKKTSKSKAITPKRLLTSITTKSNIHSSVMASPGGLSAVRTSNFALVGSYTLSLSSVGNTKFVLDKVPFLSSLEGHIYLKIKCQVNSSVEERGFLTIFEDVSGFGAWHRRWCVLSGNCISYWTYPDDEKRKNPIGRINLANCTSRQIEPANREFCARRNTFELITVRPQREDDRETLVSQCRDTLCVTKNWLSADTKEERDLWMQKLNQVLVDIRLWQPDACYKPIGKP
Experiment: co-IP; lysates of SCC-9 cells transfected with GFP-ANLN-201 or GFP-ANLN-210, pre-cleared and incubated with GFP-protein-magnetic beads overnight at 4 °C; beads washed, boiled and immunoblotted; endogenous F-actin or Myc as prey

binding: binds
Substance: c-Myc (from UniProt P01106 1-454)
